Each structure is given as a SMILES string. Values joined by “and” are separate entries in the source; they are usually repeats but may differ in a detail not shown here. Equal values may be shown once. Where a name gives a salt, the structure may show the parent alone. Some of the results follow. Single values are uncertain here, since repeats match poorly.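 HEK293T cells were given each compound shortly before transfection with a reporter in which red mCherry is followed by the SARS-CoV-2 frameshift element and then GFP in the −1 frame, so GFP appears only after frameshifting.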

The test system of one assay is SARS-CoV-2 -1 PRF reporter mCherry-FSE-GFP(-1). As to the kind of experiment: mCherry (red) intensity as percent of control; higher = higher upstream reporter expression. To be noted: 10 µM; 24 h; HEK293T.
In the case of `CN(Cc1cc(Br)cc(Br)c1N)C1CCCCC1` [bromhexine], the mCherry is 110% and 87.6%.
`CO[C@@H]1[C@@H](OC(N)=O)[C@@H](O)[C@H](Oc2ccc3c(O)c(NC(=O)c4ccc(O)c(CC=C(C)C)c4)c(=O)oc3c2C)OC1(C)C` yielded a mCherry of 86.9%.
Still for that read-out and setting: for `Cc1ccccc1OCC(O)CO` (stereo not drawn) [mephenesin] the value was 86.7%; for `CC(=O)[C@H]1CC[C@H]2[C@@H]3C=CC4=CC(=O)CC[C@@]4(C)[C@@H]3CC[C@]12C` [dydrogesterone], 93.7%.
Same read-out and setting: next, `C[N+](C)(C)CC(=O)O`: 95.3%; `COc1ccc2c(c1)C(=O)N(CCc1ccc(S(=O)(=O)NC(=O)NC3CCCCC3)cc1)C(=O)C2(C)C` [Gliquidone]: 89.4%; `COc1cc(/C=C/C(=O)N2CCCCCCC2)cc(OC)c1OC` [cinoctramide]: 94.8%.
Same read-out and setting: next, `N=C(N/N=C/c1ccc(Cl)cc1)N/N=C/c1ccc(Cl)cc1` [robenidine]: 63.1%.
In the case of `CC1(C)O[C@@H]2C[C@H]3[C@@H]4CCC5=CC(=O)C=C[C@]5(C)[C@H]4[C@@H](O)C[C@]3(C)[C@]2(C(=O)CO)O1` [desonide], the mCherry came to 102%.
Same read-out and setting: for `Cc1ccnc2c1CCCC2C(N)=S` (stereo not drawn) [isotiquimide] the value was 131%; for `COc1nsnc1NS(=O)(=O)c1ccc(N)cc1` [sulfametrole], 69.6%; for `CC1(C)S[C@@H]2[C@H](NC(=O)C(C(=O)O)c3ccccc3)C(=O)N2[C@H]1C(=O)O` (stereo partly drawn) [carbenicillin], 109%.
Still for that read-out and setting: next, `COc1cc([C@@H]2[C@H]3CO[C@@]4(O)C(=O)[C@@H]2C=C([C@H]2Oc5cc(O)cc(O)c5C(=O)[C@@H]2O)[C@@H]34)ccc1O` [Silydianin]: 99.5%; `CN(C)CCN(Cc1ccccc1)c1ccccn1`: 92.8%.
Same read-out and setting: for `COCCOc1cnc(NS(=O)(=O)c2ccccc2)nc1` [glymidine] the value was 74.2%.
For `CN/C(=N\c1ccc(C2=NNC(=O)CC2C)cc1)NC#N` (stereo not drawn) [Siguazodan], the mCherry was determined as 82.3%.
The compound `CCOC(=O)c1ccc(N(CC(C)O)CC(C)O)cc1` (stereo not drawn) [roxadimate] gave a mCherry of 72.1%.
Turning to `O=C(O)c1ccccc1Nc1cc(Cl)ccc1C(=O)O` [lobenzarit], the mCherry was 103%.
Still for that read-out and setting: for `CC1(C)S[C@@H]2[C@H](NC(=O)[C@H](N)c3ccc(O)cc3)C(=O)N2[C@H]1C(=O)O` [amoxicillin] the value was 74.6%; for `NCCCC(N)(C(=O)O)C(F)F` (stereo not drawn) [eflornithine], 118% and 94.6%; for `CCOC(=O)C(C)(C)Oc1ccc(Cl)cc1` [clofibrate], 87.5% and 97.3%.
In turn, `CC[C@@H]1C(=O)OC[C@@H]1Cc1cncn1C` [Pilocarpine·HCl] had a mCherry of 85.7%.
For the compound `CCc1c(Cl)c(O)c(Cl)c(O)c1C(=O)O[C@H]1[C@H](O)[C@H](OC)[C@H](OC/C2=C\C=C\C[C@H](O)/C(C)=C/[C@H](CC)[C@@H](O[C@@H]3OC(C)(C)[C@@H](OC(=O)C(C)C)[C@H](O)[C@@H]3O)/C(C)=C/C(C)=C/C[C@@H]([C@@H](C)O)OC2=O)O[C@@H]1C` [Fidaxomicin], the mCherry amounted to 83.2%.
In turn, `CC[C@@H](CO)NCCN[C@@H](CC)CO` [ethambutol] displayed a mCherry of 112%.
On the same count and under the same terms, next, `OC[C@@H](O)[C@@H](O[C@@H]1O[C@H](CO)[C@H](O)[C@H](O)[C@H]1O)[C@H](O)[C@@H](O)CO` [lactitol]: 63.6%; `CC(=O)N(O)CCCCCNC(=O)CCC(=O)N(O)CCCCCNC(=O)CCC(=O)N(O)CCCCCN` [deferoxamine]: 109%.
Same read-out and setting: for `CC=CC(=O)N(CC)c1ccccc1C` [Crotamiton] the value was 65.2%; for `COc1cc(O)c(C(=O)c2ccccc2)cc1S(=O)(=O)O` [sulisobenzone], 127%.
On the same count and under the same terms, for `CO/N=C(\C(=O)N[C@@H]1C(=O)N2C(C(=O)O)=C(COC(C)=O)CS[C@H]12)c1csc(N)n1` the value was 151%.
`COc1cc2nc(N3CCN(C(=O)C4CCCO4)CC3)nc(N)c2cc1OC` (stereo not drawn) came in with a mCherry of 129%.
Still for that read-out and setting: for `C#CC(C)(CC)OC(=O)c1ccccc1C(=O)O` (stereo not drawn) [ftalofyne] the value was 84.4%; for `OC[C@H]1O[C@@H](c2ccc(Cl)c(Cc3ccc(O[C@H]4CCOC4)cc3)c2)[C@H](O)[C@@H](O)[C@@H]1O` [Empagliflozin], 105%.
Same read-out and setting: for `c1ccc(C2CN3CCSC3=N2)cc1` (stereo not drawn) the value was 99.5%; for `CCCCC(F)(F)[C@@]1(O)CC[C@H]2[C@@H](CC(=O)[C@@H]2CCCCCCC(=O)O)O1` [lubiprostone], 93%.
Take `COc1ccc(CCNC[C@H](O)c2ccc(O)cc2)cc1OC` [denopamine]: the mCherry turned out to be 66.8%.
Compound `CN1CC(=O)N2[C@H](c3ccc4c(c3)OCO4)c3[nH]c4ccccc4c3C[C@@H]2C1=O` [tadalafil] gave a mCherry of 129%.
On the same count and under the same terms, next, `Cc1cnc(C(=O)NCCc2ccc(S(=O)(=O)NC(=O)NC3CCCCC3)cc2)cn1` [glipizide]: 79.5% and 91.2%.
The same measure, in the same setting: next, `CC1=CC(=O)NS(=O)(=O)O1`: 66%; `CCCCCC1C(=O)N2C=C(c3ccccc3)c3ccccc3N2C1=O` (stereo not drawn) [cinnopentazone]: 82.1%.

The next assay has the same test system. As to the kind of experiment: percent effect, decrease of GFP/mCherry ratio (-1 PRF reporter) relative to controls; higher = stronger frameshift inhibition. To be noted: 10 µM; 24 h; HEK293T.
As for `CN(Cc1cc(Br)cc(Br)c1N)C1CCCCC1` [bromhexine], the percent effect was 0.113% and -1.16%.
On the same count and under the same terms, for `CO[C@@H]1[C@@H](OC(N)=O)[C@@H](O)[C@H](Oc2ccc3c(O)c(NC(=O)c4ccc(O)c(CC=C(C)C)c4)c(=O)oc3c2C)OC1(C)C` the value was -0.605%; for `Cc1ccccc1OCC(O)CO` (stereo not drawn) [mephenesin], -3.28%; for `CC(=O)[C@H]1CC[C@H]2[C@@H]3C=CC4=CC(=O)CC[C@@]4(C)[C@@H]3CC[C@]12C` [dydrogesterone], -1.97%.
Turning to `C[N+](C)(C)CC(=O)O`, the percent effect was -7.93%.
Still for that read-out and setting: for `COc1ccc2c(c1)C(=O)N(CCc1ccc(S(=O)(=O)NC(=O)NC3CCCCC3)cc1)C(=O)C2(C)C` [Gliquidone] the value was -0.593%; for `COc1cc(/C=C/C(=O)N2CCCCCCC2)cc(OC)c1OC` [cinoctramide], -0.878%; for `N=C(N/N=C/c1ccc(Cl)cc1)N/N=C/c1ccc(Cl)cc1` [robenidine], -4.84%.
Regarding `CC1(C)O[C@@H]2C[C@H]3[C@@H]4CCC5=CC(=O)C=C[C@]5(C)[C@H]4[C@@H](O)C[C@]3(C)[C@]2(C(=O)CO)O1` [desonide], the percent effect is -2.97%.
On the same count and under the same terms, for `Cc1ccnc2c1CCCC2C(N)=S` (stereo not drawn) [isotiquimide] the value was 3.59%; for `COc1nsnc1NS(=O)(=O)c1ccc(N)cc1` [sulfametrole], -0.341%.
On the same count and under the same terms, next, `CC1(C)S[C@@H]2[C@H](NC(=O)C(C(=O)O)c3ccccc3)C(=O)N2[C@H]1C(=O)O` (stereo partly drawn) [carbenicillin]: -2.54%; `COc1cc([C@@H]2[C@H]3CO[C@@]4(O)C(=O)[C@@H]2C=C([C@H]2Oc5cc(O)cc(O)c5C(=O)[C@@H]2O)[C@@H]34)ccc1O` [Silydianin]: -1.96%; `CN(C)CCN(Cc1ccccc1)c1ccccn1`: -2.07%.
Take `COCCOc1cnc(NS(=O)(=O)c2ccccc2)nc1` [glymidine]: the percent effect was -1.19%.
For `CN/C(=N\c1ccc(C2=NNC(=O)CC2C)cc1)NC#N` (stereo not drawn) [Siguazodan], the percent effect is -7.11%.
With `CCOC(=O)c1ccc(N(CC(C)O)CC(C)O)cc1` (stereo not drawn) [roxadimate], the percent effect is -3.31%.
On the same count and under the same terms, next, `O=C(O)c1ccccc1Nc1cc(Cl)ccc1C(=O)O` [lobenzarit]: -1.75%.
The same measure, in the same setting: for `CC1(C)S[C@@H]2[C@H](NC(=O)[C@H](N)c3ccc(O)cc3)C(=O)N2[C@H]1C(=O)O` [amoxicillin] the value was -3.54%.
With `NCCCC(N)(C(=O)O)C(F)F` (stereo not drawn) [eflornithine], the percent effect is -4.34% and 0.643%.
Same read-out and setting: next, `CCOC(=O)C(C)(C)Oc1ccc(Cl)cc1` [clofibrate]: -2.65% and 3.42%; `CC[C@@H]1C(=O)OC[C@@H]1Cc1cncn1C` [Pilocarpine·HCl]: -0.801%.
Same read-out and setting: next, `CCc1c(Cl)c(O)c(Cl)c(O)c1C(=O)O[C@H]1[C@H](O)[C@H](OC)[C@H](OC/C2=C\C=C\C[C@H](O)/C(C)=C/[C@H](CC)[C@@H](O[C@@H]3OC(C)(C)[C@@H](OC(=O)C(C)C)[C@H](O)[C@@H]3O)/C(C)=C/C(C)=C/C[C@@H]([C@@H](C)O)OC2=O)O[C@@H]1C` [Fidaxomicin]: -3.09%; `CC[C@@H](CO)NCCN[C@@H](CC)CO` [ethambutol]: -1.13%; `OC[C@@H](O)[C@@H](O[C@@H]1O[C@H](CO)[C@H](O)[C@H](O)[C@H]1O)[C@H](O)[C@@H](O)CO` [lactitol]: -8.12%.
The same measure, in the same setting: next, `CC(=O)N(O)CCCCCNC(=O)CCC(=O)N(O)CCCCCNC(=O)CCC(=O)N(O)CCCCCN` [deferoxamine]: -7.29%.
As to `CC=CC(=O)N(CC)c1ccccc1C` [Crotamiton], the percent effect is -2.79%.
Consider `COc1cc(O)c(C(=O)c2ccccc2)cc1S(=O)(=O)O` [sulisobenzone], for which the percent effect was found to be 7.73%.
On to `CO/N=C(\C(=O)N[C@@H]1C(=O)N2C(C(=O)O)=C(COC(C)=O)CS[C@H]12)c1csc(N)n1`, for which the percent effect was found to be 2.93%.
On the same count and under the same terms, for `COc1cc2nc(N3CCN(C(=O)C4CCCO4)CC3)nc(N)c2cc1OC` (stereo not drawn) the value was 1.21%; for `C#CC(C)(CC)OC(=O)c1ccccc1C(=O)O` (stereo not drawn) [ftalofyne], -6.96%; for `OC[C@H]1O[C@@H](c2ccc(Cl)c(Cc3ccc(O[C@H]4CCOC4)cc3)c2)[C@H](O)[C@@H](O)[C@@H]1O` [Empagliflozin], 2.97%.
Same read-out and setting: next, `c1ccc(C2CN3CCSC3=N2)cc1` (stereo not drawn): 4.04%; `CCCCC(F)(F)[C@@]1(O)CC[C@H]2[C@@H](CC(=O)[C@@H]2CCCCCCC(=O)O)O1` [lubiprostone]: -4.37%.
Regarding `COc1ccc(CCNC[C@H](O)c2ccc(O)cc2)cc1OC` [denopamine], the percent effect is -13.5%.
For `CN1CC(=O)N2[C@H](c3ccc4c(c3)OCO4)c3[nH]c4ccccc4c3C[C@@H]2C1=O` [tadalafil], the percent effect was -1.27%.
The same measure, in the same setting: next, `Cc1cnc(C(=O)NCCc2ccc(S(=O)(=O)NC(=O)NC3CCCCC3)cc2)cn1` [glipizide]: -3.93% and -2.07%; `CC1=CC(=O)NS(=O)(=O)O1`: -3.7%; `CCCCCC1C(=O)N2C=C(c3ccccc3)c3ccccc3N2C1=O` (stereo not drawn) [cinnopentazone]: -7.29%.
